Measured values from paper PMC5736175, “Nicotinic alpha 7 receptor agonists EVP-6124 and BMS-933043, attenuate scopolamine-induced deficits in visuo-spatial paired associates learning” (PLoS ONE, 2017).
Where a name gives a salt, the structure may show the parent alone.

Assay: Plasma pharmacokinetics in satellite animals (LC-MS/MS), 60 min after i.m. dose
Conditions: cynomolgus monkey, in vivo, nM total compound in plasma from satellite animals
Method: For all compounds, plasma pharmacokinetic studies were conducted in a separate cohort of cynomolgus monkeys (N = 2–3 subjects per dose) before beginning vsPAL testing to help guide dose selection. Blood samples were obtained with the animals awake and sitting in a primate chair.
Plasma concentrations of test compounds were determined using LC-MS/MS assays. In brief, 50 μL plasma and sample containing compounds was extracted by protein precipitation method with 150 μL acetonitrile containing an internal standard. A 5 μL sample of supernatant was injected into the LC-MS/MS system. Analytes were separated by reversed phase chromatography and detection of each analyte was achieved through selected reaction monitoring mode of mass spectrometry. Samples were quantified by calculated peak area ratio of analyte and internal standard against a calibration curve.

CN1[C@@H]2C[C@@H](OC(=O)[C@H](CO)c3ccccc3)C[C@H]1[C@@H]1O[C@@H]12 [Scopolamine, Scopolamine HCl]
concentration at 60 min (0.003 mg/kg, Scopolamine 0.003 mg/kg i.m., individual subjects): 2 nM
concentration at 60 min (0.003 mg/kg, Scopolamine 0.003 mg/kg i.m., mean): 2.8 nM
concentration at 60 min (0.0056 mg/kg, Scopolamine 0.0056 mg/kg i.m., individual subjects): 3.4 nM
concentration at 60 min (0.0056 mg/kg, Scopolamine 0.0056 mg/kg i.m., mean): 2.9 nM
concentration at 60 min (0.01 mg/kg, Scopolamine 0.010 mg/kg i.m., mean): 12 nM
